The other results are listed elsewhere or left out.
Experiments:
Assay in all cases: log2 fold change, soluble protein after heating vs DMSO (PISA); higher = thermal stabilisation; K562 cells, 10 uM, 30 min; active = over 0.2 and 3.5 SD of the protein, either way, in both replicates (recomputed)
bafetinib = compound: Cc1ccc(NC(=O)c2ccc(CN3CC[C@H](N(C)C)C3)c(C(F)(F)F)c2)cc1Nc1nccc(-c2cncnc2)n1 [bafetinib]
Outline: (§1)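 K562 cells at 2×10^6 cells/mL were exposed to 10 μM compound for 30 min, then aliquots were heated for 3 min across 48°C-58°C, pooled, and extracted in PBS containing 0.5% NP-40 at 4°C. The supernatant after 21,000xg for 90 min was taken as soluble protein and measured by TMTpro 16plex LC-MS/MS with channel sums equalised. Thermal stability is reported relative to control samples, with values from duplicates. Fold changes are given on a log2 scale.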

Sequences of proteins named here, by UniProt entry; tags and fusion partners are left off. A change or cut given only in a name is not applied to a line headed by its entry.
UniProt Q99570, whole entry, looked up: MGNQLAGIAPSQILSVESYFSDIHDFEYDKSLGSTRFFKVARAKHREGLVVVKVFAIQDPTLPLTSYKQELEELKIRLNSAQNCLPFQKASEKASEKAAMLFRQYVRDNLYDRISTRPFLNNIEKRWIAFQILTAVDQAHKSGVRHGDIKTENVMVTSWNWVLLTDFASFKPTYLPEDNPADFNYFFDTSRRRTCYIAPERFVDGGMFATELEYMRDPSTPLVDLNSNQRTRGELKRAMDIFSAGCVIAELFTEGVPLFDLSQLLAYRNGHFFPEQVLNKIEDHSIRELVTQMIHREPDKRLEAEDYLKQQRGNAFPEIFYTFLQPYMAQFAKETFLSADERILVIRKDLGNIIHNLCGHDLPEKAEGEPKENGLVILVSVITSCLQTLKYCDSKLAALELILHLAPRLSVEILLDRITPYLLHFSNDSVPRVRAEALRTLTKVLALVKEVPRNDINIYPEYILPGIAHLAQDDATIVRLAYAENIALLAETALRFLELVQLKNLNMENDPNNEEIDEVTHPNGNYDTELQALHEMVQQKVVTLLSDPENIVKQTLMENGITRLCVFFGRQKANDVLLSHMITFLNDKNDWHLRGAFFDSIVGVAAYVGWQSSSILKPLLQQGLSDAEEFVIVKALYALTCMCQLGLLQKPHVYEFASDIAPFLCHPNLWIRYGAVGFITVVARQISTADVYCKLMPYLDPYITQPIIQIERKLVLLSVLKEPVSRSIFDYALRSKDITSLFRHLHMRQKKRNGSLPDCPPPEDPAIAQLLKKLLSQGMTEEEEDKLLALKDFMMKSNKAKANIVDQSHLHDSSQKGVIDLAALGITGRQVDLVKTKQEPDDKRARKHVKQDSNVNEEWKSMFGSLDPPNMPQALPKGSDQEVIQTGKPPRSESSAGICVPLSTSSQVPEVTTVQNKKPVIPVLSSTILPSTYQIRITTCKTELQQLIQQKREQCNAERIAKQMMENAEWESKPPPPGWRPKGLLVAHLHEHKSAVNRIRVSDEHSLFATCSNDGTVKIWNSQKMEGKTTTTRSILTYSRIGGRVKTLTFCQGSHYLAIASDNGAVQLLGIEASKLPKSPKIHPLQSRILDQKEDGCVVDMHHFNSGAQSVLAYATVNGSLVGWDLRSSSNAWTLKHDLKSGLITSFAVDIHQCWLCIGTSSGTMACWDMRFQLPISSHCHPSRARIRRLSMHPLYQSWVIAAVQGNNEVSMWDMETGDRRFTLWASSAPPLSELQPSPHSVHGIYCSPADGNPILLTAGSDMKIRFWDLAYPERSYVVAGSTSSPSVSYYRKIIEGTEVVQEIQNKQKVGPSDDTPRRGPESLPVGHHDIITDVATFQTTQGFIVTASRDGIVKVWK
UniProt Q96G03: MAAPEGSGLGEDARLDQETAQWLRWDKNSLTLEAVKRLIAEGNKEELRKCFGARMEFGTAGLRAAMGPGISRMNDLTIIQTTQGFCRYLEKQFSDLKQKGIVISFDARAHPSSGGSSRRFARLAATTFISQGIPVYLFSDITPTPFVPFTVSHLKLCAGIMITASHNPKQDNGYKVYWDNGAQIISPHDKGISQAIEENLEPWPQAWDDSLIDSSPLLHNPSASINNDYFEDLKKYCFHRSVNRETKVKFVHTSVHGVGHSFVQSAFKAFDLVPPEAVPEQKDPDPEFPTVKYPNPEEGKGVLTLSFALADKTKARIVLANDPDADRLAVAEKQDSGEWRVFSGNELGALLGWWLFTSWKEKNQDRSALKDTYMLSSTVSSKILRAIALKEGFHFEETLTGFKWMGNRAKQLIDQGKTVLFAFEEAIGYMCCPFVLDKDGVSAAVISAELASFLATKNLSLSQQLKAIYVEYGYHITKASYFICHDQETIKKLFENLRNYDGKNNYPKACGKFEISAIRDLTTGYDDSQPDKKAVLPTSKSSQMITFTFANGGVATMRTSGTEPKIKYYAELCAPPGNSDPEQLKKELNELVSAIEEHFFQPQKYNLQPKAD
UniProt P15735: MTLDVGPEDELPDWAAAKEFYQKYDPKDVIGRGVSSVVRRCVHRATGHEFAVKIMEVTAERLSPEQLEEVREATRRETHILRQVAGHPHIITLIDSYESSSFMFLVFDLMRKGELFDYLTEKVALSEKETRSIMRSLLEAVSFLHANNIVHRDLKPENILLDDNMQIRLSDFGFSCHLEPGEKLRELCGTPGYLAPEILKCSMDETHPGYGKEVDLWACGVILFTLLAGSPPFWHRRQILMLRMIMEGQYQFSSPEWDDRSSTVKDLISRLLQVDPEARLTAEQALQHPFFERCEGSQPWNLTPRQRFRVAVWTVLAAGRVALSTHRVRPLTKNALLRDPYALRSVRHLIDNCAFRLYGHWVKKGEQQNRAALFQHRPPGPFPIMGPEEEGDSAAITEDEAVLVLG
UniProt Q8WUB8: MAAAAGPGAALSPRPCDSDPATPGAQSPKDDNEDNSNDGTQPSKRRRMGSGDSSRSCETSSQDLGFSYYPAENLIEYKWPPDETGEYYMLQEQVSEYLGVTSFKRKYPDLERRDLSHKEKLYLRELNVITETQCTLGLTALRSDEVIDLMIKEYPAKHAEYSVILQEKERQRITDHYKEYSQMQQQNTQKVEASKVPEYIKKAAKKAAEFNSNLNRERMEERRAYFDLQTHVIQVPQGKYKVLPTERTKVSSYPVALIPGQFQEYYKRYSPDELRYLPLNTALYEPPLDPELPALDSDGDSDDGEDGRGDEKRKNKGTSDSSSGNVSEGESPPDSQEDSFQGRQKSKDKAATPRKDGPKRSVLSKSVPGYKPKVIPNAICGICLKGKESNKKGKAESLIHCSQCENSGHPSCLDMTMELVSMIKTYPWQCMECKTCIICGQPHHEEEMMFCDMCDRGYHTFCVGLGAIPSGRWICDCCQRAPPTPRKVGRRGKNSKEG
UniProt P14618, whole entry, looked up: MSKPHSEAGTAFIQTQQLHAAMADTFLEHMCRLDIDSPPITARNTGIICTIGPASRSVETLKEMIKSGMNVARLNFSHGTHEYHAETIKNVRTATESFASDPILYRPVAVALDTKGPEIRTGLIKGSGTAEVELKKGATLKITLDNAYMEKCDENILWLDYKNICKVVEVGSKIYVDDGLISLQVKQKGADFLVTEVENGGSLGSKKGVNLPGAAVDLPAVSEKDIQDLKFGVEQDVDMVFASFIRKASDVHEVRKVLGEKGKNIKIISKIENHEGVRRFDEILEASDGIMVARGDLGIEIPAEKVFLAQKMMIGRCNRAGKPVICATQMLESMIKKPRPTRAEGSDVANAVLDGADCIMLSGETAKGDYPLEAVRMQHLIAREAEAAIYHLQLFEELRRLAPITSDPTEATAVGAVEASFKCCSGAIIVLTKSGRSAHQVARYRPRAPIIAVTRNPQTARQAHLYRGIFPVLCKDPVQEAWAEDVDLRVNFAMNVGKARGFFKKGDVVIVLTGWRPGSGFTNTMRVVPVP
UniProt O00264: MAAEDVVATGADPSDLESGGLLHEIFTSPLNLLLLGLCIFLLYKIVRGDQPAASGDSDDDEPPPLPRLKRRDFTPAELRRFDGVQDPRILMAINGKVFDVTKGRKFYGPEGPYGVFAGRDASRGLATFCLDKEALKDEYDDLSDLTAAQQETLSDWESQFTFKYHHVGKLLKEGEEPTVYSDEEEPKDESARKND
UniProt P52209: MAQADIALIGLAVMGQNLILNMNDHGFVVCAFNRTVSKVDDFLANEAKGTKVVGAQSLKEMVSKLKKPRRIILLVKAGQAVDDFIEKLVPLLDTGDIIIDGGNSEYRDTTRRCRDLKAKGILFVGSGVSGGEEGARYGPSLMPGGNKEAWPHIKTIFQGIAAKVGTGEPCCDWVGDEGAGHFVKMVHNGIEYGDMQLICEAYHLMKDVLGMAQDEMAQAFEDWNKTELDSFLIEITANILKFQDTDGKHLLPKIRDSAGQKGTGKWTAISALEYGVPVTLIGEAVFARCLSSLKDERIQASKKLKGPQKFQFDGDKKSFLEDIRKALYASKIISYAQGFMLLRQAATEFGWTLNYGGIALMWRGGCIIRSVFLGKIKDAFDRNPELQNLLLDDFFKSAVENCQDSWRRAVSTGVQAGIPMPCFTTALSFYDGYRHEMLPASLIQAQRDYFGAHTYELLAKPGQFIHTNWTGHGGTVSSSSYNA
UniProt Q9BRB3: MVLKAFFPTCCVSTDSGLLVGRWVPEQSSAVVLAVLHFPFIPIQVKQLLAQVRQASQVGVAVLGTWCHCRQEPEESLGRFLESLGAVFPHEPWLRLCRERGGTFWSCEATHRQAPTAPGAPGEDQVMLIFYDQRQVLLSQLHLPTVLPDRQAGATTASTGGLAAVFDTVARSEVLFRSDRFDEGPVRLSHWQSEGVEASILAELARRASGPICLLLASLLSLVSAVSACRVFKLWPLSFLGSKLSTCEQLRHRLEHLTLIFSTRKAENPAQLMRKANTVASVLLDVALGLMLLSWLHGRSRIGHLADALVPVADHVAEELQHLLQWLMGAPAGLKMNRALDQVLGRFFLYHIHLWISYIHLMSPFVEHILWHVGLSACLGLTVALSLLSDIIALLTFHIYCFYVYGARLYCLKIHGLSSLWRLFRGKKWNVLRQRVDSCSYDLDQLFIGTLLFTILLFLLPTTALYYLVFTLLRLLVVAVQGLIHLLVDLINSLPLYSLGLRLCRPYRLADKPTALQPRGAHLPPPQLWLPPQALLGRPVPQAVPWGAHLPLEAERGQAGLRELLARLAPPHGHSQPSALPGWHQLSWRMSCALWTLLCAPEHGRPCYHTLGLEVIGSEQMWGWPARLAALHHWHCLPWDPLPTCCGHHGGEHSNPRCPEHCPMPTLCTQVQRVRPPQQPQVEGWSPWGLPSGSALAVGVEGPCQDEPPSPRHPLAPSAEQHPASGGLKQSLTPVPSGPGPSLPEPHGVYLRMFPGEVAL
UniProt Q7Z7B1: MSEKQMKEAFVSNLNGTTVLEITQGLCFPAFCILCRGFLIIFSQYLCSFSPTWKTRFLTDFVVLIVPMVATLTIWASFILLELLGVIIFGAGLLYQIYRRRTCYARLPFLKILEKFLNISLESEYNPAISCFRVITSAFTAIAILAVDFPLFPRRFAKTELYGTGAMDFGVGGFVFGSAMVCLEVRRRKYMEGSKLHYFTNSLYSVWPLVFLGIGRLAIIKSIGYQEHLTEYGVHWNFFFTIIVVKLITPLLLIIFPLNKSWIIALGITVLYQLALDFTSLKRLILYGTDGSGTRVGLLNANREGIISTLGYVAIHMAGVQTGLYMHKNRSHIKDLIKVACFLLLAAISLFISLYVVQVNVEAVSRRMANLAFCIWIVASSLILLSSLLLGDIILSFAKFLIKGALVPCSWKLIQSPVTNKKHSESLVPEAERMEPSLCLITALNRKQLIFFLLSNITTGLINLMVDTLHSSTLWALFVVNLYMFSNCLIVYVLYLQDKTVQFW
UniProt Q15111: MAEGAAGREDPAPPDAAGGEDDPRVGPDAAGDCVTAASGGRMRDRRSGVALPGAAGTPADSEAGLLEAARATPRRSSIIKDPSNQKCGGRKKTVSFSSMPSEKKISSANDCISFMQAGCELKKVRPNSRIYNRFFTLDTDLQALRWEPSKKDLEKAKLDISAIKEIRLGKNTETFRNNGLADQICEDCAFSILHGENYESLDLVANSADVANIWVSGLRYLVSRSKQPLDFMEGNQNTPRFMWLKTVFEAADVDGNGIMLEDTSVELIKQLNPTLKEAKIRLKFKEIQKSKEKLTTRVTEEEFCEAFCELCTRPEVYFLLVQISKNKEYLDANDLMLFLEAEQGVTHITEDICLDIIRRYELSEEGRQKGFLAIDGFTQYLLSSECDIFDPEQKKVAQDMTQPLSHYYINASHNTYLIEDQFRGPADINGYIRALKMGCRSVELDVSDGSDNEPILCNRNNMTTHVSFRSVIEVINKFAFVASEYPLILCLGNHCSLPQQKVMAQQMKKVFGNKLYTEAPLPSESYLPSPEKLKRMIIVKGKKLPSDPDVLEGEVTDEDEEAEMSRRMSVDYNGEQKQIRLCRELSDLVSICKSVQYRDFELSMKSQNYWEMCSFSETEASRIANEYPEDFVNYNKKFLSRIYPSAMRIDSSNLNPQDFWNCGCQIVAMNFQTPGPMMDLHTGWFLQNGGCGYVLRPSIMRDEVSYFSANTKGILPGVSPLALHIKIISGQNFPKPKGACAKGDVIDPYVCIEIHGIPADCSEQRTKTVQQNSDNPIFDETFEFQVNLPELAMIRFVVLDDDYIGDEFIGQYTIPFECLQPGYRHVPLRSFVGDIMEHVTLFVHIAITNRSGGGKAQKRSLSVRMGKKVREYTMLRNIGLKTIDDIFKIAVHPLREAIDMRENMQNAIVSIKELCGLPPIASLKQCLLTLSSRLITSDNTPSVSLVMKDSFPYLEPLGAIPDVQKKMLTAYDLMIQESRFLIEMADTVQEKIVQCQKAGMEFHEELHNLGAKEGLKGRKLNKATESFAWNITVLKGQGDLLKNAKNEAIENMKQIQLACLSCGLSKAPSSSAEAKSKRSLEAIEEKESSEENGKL

[1] = compound: Cc1cccc(CC(=O)N2CCc3c2ccc(-c2cn(C)c4ncnc(N)c24)c3F)n1
Outline: as §1

nilotinib = compound: Cc1cn(-c2cc(NC(=O)c3ccc(C)c(Nc4nccc(-c5cccnc5)n4)c3)cc(C(F)(F)F)c2)cn1 [nilotinib]
Outline: as §1

[2] = compound: Cc1nc(Nc2n[nH]c3c2CN(C(=O)N[C@H](CN(C)C)c2ccccc2)C3(C)C)c2sccc2n1
Outline: as §1

dasatinib = compound: Cc1nc(Nc2ncc(C(=O)Nc3c(C)cccc3Cl)s2)cc(N2CCN(CCO)CC2)n1 [dasatinib]
Outline: as §1

[3] = compound: Cc1ncc(-c2ccnc(Nc3ccc(S(C)(=O)=O)cc3)n2)n1C(C)C
Outline: as §1

[4] = compound: Cn1cc(-c2ccc3c(c2)CCN3C(=O)Cc2cccc(C(F)(F)F)c2)c2c(N)ncnc21
Outline: as §1

[5] = compound: Cn1cc(-c2ccc3nnc(C(F)(F)c4ccc5ncccc5c4)n3n2)cn1
Outline: as §1

tipifarnib = compound: Cn1cncc1[C@@](N)(c1ccc(Cl)cc1)c1ccc2c(c1)c(-c1cccc(Cl)c1)cc(=O)n2C [tipifarnib]
Outline: as §1

mubritinib = compound: FC(F)(F)c1ccc(/C=C/c2nc(COc3ccc(CCCCn4ccnn4)cc3)co2)cc1 [mubritinib]
Outline: as §1

Target	log2 fold change (bafetinib)	log2 fold change [1]	log2 fold change (nilotinib)	log2 fold change [2]	log2 fold change (dasatinib)	log2 fold change [3]	log2 fold change [4]	log2 fold change [5]	log2 fold change (tipifarnib)	log2 fold change (mubritinib)
PIK3R4 (UniProt Q99570)	inactive: 0.055	inactive: -0.065	inactive: -0.021	inactive: -0.043	inactive: -0.037	inactive: 0.186	inactive: 0.021	inactive: 0.041	inactive: 0.012	inactive: 0.036
PJA2 (UniProt O43164)	inactive: -0.121	inactive: -0.072	inactive: 0.023	inactive: -0.021	inactive: 0.036	inactive: -0.04	inactive: -0.06	inactive: 0.008	inactive: 0.071	inactive: 0.018
PFKL isoform 2 (UniProt P17858)	inactive: -0.039	inactive: -0.015	inactive: 0.006	inactive: 0.014	inactive: -0.006	inactive: 0.016	inactive: 0.027	inactive: 0.011	inactive: 0	inactive: 0.053
PGM2 (UniProt Q96G03)	inactive: -0.022	inactive: 0.018	inactive: -0.017	inactive: 0.003	inactive: 0.075	inactive: -0.014	inactive: 0.017	inactive: -0.005	inactive: 0.022	inactive: 0.016
PIP4K2B (UniProt P78356)	inactive: 0.258	inactive: 0.011	inactive: 0.085	inactive: 0.05	inactive: 0.139	active: 0.538	inactive: 0.055	inactive: 0.172	inactive: -0.03	inactive: -0.083
PICALM (UniProt Q13492)	inactive: -0.052	inactive: 0.013	inactive: -0.046	inactive: -0.015	inactive: -0.033	inactive: -0.016	inactive: 0.053	inactive: -0.037	inactive: -0.02	inactive: 0.032
PHKG2 (UniProt P15735)	inactive: -0.047	inactive: 0.044	inactive: -0.177	active: 0.321	inactive: -0.306	inactive: 0.011	inactive: -0.024	inactive: -0.017	inactive: -0.046	inactive: -0.127
PGM3 isoform 4 (UniProt O95394)	inactive: 0.056	inactive: 0.153	inactive: -0.022	inactive: 0.021	inactive: -0.145	inactive: -0.003	inactive: 0.106	inactive: 0.02	inactive: -0.079	active: 0.293
PFKM isoform 3 (UniProt P08237)	inactive: -0.04	inactive: -0.039	inactive: 0.006	inactive: 0.006	inactive: 0.007	inactive: -0.01	inactive: 0.013	inactive: -0.005	inactive: -0.004	inactive: 0.061
PKP3 isoform 2 (UniProt Q9Y446)	inactive: 0.063	inactive: 0.159	–	–	inactive: -0.17	–	inactive: 0.096	inactive: -0.102	inactive: 0.011	inactive: -0.07
PGPEP1 (UniProt Q9NXJ5)	inactive: 0.028	–	–	–	inactive: -0.602	–	inactive: 0.071	inactive: 0.012	inactive: -0.101	inactive: 0.122
PHF10 (UniProt Q8WUB8)	inactive: 0.04	inactive: 0.023	–	–	inactive: 0.001	–	inactive: 0.181	inactive: -0.096	inactive: -0.007	–
PFN1 (UniProt I3L3D5)	inactive: -0.39	inactive: -0.436	–	–	–	–	inactive: -0.158	inactive: -0.001	inactive: 0.13	inactive: -0.031
PFKM (UniProt F8VTQ3)	inactive: -0.041	inactive: -0.045	–	–	–	–	–	–	inactive: 0.134	–
PIP5K1C isoform 3 (UniProt O60331)	inactive: -0.082	inactive: 0.087	–	–	inactive: 0.027	–	–	–	–	–
PIK3CA (UniProt P42336)	inactive: -0.072	–	inactive: -0.325	inactive: 0.453	–	inactive: -0.033	inactive: -0.125	inactive: -0.179	–	inactive: 0.126
PIK3C3 (UniProt Q8NEB9)	inactive: 0.065	inactive: -0.011	inactive: 0.043	inactive: -0.039	inactive: -0.04	inactive: 0.202	inactive: -0.035	inactive: -0.006	inactive: 0.047	inactive: 0.042

Target	log2 fold change (bafetinib)	log2 fold change [1]	log2 fold change (nilotinib)	log2 fold change [2]	log2 fold change (dasatinib)	log2 fold change [3]	log2 fold change [4]	log2 fold change [5]	log2 fold change (tipifarnib)	log2 fold change (mubritinib)
PKM isoform 2 (UniProt P14618)	inactive: -0.155	inactive: 0.029	inactive: 0.121	inactive: -0.104	inactive: -0.014	inactive: 0.198	–	inactive: 0.017	inactive: 0.209	inactive: 0.05
PHF19 isoform 2 (UniProt Q5T6S3)	inactive: 0.351	inactive: -0.035	inactive: -0.009	inactive: 0.031	inactive: -0.066	inactive: -0.012	–	inactive: -0.063	inactive: -0.214	inactive: 0.012
PGRMC1 (UniProt O00264)	inactive: -0.068	inactive: -0.018	inactive: 0.012	inactive: -0.023	inactive: 0.023	inactive: -0.029	inactive: -0.016	inactive: 0.05	inactive: -0.023	inactive: 0.035
PGD (UniProt P52209)	inactive: -0.031	inactive: 0.016	inactive: -0.005	inactive: -0.031	inactive: -0.044	inactive: -0.021	inactive: 0.051	inactive: 0.005	inactive: -0.047	inactive: 0.037
PIGQ (UniProt Q9BRB3)	inactive: -0.086	inactive: 0.021	inactive: 0.068	inactive: -0.031	inactive: -0.164	inactive: -0.014	inactive: 0.13	inactive: 0.073	–	inactive: -0.054
PGD (UniProt K7EM49)	inactive: -0.238	inactive: -0.543	–	–	–	–	–	inactive: 0.099	inactive: 0.092	–
PITPNB isoform 3 (UniProt P48739)	inactive: 0.026	inactive: -0.005	inactive: 0.009	inactive: 0.057	inactive: 0.037	inactive: 0.003	inactive: 0.044	inactive: 0.036	inactive: 0.036	inactive: 0.011
PKM (UniProt P14618)	inactive: -0.023	inactive: -0.012	inactive: -0.011	inactive: -0.004	inactive: 0.024	inactive: -0.009	inactive: 0.015	inactive: 0.006	inactive: 0.005	inactive: 0.035
PHC3 isoform 7 (UniProt Q8NDX5)	inactive: 0.222	–	inactive: -0.187	inactive: 0.01	–	inactive: 0	inactive: 0.018	–	inactive: -0.016	inactive: 0.191
PLEC (UniProt Q15149)	inactive: 0.108	inactive: -0.005	inactive: 0.036	inactive: 0.106	inactive: -0.004	inactive: -0.058	inactive: -0.089	inactive: 0.026	inactive: 0.026	inactive: -0.05
PIGW (UniProt Q7Z7B1)	inactive: -0.053	inactive: -0.027	inactive: -0.024	inactive: -0.059	inactive: 0.027	inactive: 0.03	–	–	inactive: -0.039	inactive: 0.053
PGS1 (UniProt Q32NB8)	inactive: 0.092	inactive: -0.036	inactive: 0.078	inactive: -0.095	inactive: -0.133	inactive: -0.07	inactive: -0.048	–	inactive: -0.029	inactive: 0.065
PIP4K2A (UniProt P48426)	inactive: 0.283	inactive: 0.103	inactive: 0.077	inactive: 0.065	inactive: 0.048	active: 0.588	inactive: 0.037	inactive: 0.181	inactive: -0.081	inactive: -0.06
PIGL (UniProt Q9Y2B2)	inactive: 0.1	inactive: -0.012	inactive: 0.094	inactive: -0.036	inactive: 0.037	inactive: -0.041	inactive: -0.095	inactive: 0.062	–	inactive: 0.074
PIGM (UniProt Q9H3S5)	inactive: 0.007	–	inactive: 0.04	inactive: -0.02	inactive: 0.031	inactive: 0.003	inactive: -0.105	–	–	–
PLCL1 (UniProt Q15111)	inactive: -0.045	inactive: 0.039	inactive: -0.06	inactive: -0.197	–	inactive: -0.324	inactive: -0.116	inactive: 0.028	–	inactive: -0.018

Single records, from the list above. Order of values: log2 fold change (bafetinib) | log2 fold change [1] | log2 fold change (nilotinib) | log2 fold change [2] | log2 fold change (dasatinib) | log2 fold change [3] | log2 fold change [4] | log2 fold change [5] | log2 fold change (tipifarnib) | log2 fold change (mubritinib)
PGRMC1 (UniProt O00264) in the list: inactive: -0.068 | inactive: -0.018 | inactive: 0.012 | inactive: -0.023 | inactive: 0.023 | inactive: -0.029 | inactive: -0.016 | inactive: 0.05 | inactive: -0.023 | inactive: 0.035
PHF19 isoform 2 (UniProt Q5T6S3) in the list: inactive: 0.351 | inactive: -0.035 | inactive: -0.009 | inactive: 0.031 | inactive: -0.066 | inactive: -0.012 | – | inactive: -0.063 | inactive: -0.214 | inactive: 0.012
